Source: article PMC12552980
Changes are numbered by the printed parent chain. No constants are given. Whether binding was seen depends on the method and setting. In cells and extracts the contact can be indirect. Some results given as binding are weak or reduced against the parent protein; the word gives no strength. For some of these results: Where a sequence is shown, tags or fusion partners need not be part of it.

Key:
FLAG-TCOF1 = molecular target: T1, FLAG-TCOF1 (UniProt Q13428); experiment: co-IP; HEK293T cells co-transfected with FLAG-TCOF1 and HA-KRAS; IP with FLAG or HA antibodies, reciprocal
T1 sequence: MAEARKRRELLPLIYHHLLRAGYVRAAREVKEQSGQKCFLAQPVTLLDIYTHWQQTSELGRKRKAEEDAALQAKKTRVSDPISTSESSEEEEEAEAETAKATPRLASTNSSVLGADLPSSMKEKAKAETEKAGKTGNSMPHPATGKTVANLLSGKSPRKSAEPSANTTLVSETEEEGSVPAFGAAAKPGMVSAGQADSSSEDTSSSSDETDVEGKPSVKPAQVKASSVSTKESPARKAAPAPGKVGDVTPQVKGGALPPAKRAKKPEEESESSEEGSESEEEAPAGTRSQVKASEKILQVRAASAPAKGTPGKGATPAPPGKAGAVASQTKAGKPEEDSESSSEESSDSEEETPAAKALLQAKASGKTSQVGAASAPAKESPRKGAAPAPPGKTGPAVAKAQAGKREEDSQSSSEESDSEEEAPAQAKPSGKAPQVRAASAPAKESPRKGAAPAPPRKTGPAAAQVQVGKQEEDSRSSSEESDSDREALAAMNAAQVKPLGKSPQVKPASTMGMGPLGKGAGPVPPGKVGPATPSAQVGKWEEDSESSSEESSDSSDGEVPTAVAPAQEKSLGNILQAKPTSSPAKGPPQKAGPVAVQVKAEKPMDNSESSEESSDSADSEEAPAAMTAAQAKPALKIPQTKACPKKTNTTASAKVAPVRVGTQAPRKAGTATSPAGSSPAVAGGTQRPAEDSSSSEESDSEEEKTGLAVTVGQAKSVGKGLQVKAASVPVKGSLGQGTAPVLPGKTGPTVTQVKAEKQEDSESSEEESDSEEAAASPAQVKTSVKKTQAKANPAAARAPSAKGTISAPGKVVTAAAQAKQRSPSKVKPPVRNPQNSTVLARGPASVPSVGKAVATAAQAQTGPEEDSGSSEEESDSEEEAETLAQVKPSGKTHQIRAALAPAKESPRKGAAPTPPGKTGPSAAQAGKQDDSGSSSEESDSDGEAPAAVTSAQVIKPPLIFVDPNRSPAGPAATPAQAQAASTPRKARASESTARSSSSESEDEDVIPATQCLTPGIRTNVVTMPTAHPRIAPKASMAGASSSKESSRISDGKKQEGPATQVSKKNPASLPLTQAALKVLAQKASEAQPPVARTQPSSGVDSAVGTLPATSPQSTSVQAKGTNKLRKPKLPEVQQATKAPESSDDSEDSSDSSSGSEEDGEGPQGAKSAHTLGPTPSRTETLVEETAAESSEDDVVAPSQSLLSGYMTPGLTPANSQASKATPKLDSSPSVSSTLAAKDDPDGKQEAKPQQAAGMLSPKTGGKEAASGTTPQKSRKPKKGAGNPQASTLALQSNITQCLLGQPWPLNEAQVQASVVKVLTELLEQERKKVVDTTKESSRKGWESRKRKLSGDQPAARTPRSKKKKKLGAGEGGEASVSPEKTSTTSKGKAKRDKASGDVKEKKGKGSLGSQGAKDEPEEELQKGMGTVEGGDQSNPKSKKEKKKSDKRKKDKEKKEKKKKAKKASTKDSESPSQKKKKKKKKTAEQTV

TCOF1-C644S = molecular target: T2, TCOF1-C644S (UniProt Q13428); experiment: co-IP; nNOS-overexpressing Huh6 cells after TCOF1 knockout, transfected with TCOF1-WT or TCOF1-C644S; which protein was precipitated is not told
T2 sequence: T1 sequence with C644S

[1] = molecular target: Neuronal nitric oxide synthase (nNOS) (UniProt P29475); experiment: co-IP; lysate of Huh6 cells overexpressing nNOS; IP with nNOS antibodies, blot with KRAS and TCOF1 antibodies; IgG as negative control
[2] = molecular target: T3, treacle ribosome biogenesis factor 1 (TCOF1) (human (endogenous in Huh6)) (UniProt Q13428); experiment: co-IP; endogenous proteins in Huh6 lysate, with or without nNOS overexpression; IP with KRAS or TCOF1 antibodies, blot with the reciprocal antibodies; IgG as negative control
T3 sequence: T1 sequence

Row | binding (FLAG-TCOF1) | binding (TCOF1-C644S) | binding [1] | binding [2] | Substance
1 | binds |  |  |  | HA-KRAS (from UniProt P01116 1-189)
2 |  | binds | no binding | binds | KRAS (from UniProt P01116 1-189)
